{
  "source": "patent US20040009905A1",
  "about": "(B.M.R.A. Corporation B.V., priority 1998, published 2004)",
  "test": "general procedure: Fmoc solid-phase peptide synthesis; Rink amide resin; PyBOP/DIEA",
  "settings": "conjugation step",
  "note": "Strings that start with PEPTIDE1 are HELM notation: dots part the residues, brackets hold end groups and non-standard residues.",
  "data": [
    {"substance": "PEPTIDE1{[Amn].[Lys(oxAoa)].G.[Lys(oxAoa)]}|PEPTIDE2{G.Y.S.A.L.R.H.Y.I.N.L.I.T.R.Q.R.Y.[am]}|PEPTIDE3{G.Y.S.A.L.R.H.Y.I.N.L.I.T.R.Q.R.Y.[am]}$PEPTIDE1,PEPTIDE1,1:R1-4:R2|PEPTIDE1,PEPTIDE2,2:R3-1:R1|PEPTIDE1,PEPTIDE3,4:R3-1:R1$$$V2.0", "values": [
      {"measurement": "conjugation yield", "value": 45, "unit": "% yield"}
    ]}
  ]
}
